Amino acid sequences for entries named in this document (tags omitted). A change or cut given only in a name is not applied to a line headed by its entry.
UniProt Q99LM9: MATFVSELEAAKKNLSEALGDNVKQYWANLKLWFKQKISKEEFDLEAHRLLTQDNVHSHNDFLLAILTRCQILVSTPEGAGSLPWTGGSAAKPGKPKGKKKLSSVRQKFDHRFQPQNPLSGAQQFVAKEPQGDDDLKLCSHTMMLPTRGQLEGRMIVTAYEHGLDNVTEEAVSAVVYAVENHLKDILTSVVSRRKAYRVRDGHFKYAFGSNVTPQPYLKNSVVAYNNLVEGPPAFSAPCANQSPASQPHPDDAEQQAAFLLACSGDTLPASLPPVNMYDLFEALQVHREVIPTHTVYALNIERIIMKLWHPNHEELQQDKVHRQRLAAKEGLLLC
UniProt Q9CQQ7: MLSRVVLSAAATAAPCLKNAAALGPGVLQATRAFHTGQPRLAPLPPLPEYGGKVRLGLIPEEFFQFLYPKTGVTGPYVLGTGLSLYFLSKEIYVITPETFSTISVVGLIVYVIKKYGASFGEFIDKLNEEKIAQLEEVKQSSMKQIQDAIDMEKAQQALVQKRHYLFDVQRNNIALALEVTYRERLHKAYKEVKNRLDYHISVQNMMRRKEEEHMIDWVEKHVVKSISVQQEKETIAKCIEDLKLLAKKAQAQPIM
UniProt Q9CQ36: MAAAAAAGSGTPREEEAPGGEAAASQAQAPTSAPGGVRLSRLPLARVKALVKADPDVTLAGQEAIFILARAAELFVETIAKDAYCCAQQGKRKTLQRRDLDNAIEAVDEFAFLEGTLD
UniProt Q9CR24: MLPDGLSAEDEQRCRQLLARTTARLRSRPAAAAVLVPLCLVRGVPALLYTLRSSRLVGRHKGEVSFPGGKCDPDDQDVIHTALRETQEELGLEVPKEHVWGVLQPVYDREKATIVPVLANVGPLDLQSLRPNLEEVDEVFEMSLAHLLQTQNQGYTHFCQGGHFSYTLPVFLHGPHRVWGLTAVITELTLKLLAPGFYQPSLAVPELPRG
UniProt Q99MN9: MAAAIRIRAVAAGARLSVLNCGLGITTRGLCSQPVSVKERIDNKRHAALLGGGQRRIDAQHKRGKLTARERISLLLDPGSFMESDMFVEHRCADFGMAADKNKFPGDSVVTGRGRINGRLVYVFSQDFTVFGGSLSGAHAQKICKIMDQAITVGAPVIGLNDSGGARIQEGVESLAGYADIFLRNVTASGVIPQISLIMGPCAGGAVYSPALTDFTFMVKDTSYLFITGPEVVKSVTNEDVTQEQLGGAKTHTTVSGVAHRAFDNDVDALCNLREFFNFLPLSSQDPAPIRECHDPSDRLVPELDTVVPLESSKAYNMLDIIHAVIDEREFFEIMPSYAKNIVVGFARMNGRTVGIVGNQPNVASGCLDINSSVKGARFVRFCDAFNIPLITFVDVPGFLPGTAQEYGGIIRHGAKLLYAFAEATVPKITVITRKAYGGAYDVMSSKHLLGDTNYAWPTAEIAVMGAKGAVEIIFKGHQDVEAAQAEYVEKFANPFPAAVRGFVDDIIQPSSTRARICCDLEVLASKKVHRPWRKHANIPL
UniProt Q9CQI7, whole entry: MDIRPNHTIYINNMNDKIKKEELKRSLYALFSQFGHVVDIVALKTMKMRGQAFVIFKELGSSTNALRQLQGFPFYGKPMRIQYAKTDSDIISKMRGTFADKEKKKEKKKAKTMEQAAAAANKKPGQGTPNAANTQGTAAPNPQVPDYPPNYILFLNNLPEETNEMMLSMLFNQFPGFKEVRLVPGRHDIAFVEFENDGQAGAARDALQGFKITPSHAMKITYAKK
UniProt Q99PE8: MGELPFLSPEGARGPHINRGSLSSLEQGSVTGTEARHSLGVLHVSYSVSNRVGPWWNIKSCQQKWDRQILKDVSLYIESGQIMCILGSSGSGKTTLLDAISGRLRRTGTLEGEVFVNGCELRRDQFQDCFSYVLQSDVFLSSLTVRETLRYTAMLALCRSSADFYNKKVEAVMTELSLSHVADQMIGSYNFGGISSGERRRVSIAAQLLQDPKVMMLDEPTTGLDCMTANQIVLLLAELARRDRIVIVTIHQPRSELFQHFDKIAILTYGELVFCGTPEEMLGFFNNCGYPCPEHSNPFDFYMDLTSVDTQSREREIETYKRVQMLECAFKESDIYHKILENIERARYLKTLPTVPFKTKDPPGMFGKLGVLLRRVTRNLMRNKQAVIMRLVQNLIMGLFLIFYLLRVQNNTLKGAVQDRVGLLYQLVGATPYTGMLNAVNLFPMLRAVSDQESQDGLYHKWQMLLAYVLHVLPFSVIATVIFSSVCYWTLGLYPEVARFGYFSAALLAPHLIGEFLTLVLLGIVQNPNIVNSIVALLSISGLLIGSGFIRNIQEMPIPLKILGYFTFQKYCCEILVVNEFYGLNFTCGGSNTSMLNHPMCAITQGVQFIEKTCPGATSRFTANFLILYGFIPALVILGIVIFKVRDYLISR
UniProt Q9CQL6: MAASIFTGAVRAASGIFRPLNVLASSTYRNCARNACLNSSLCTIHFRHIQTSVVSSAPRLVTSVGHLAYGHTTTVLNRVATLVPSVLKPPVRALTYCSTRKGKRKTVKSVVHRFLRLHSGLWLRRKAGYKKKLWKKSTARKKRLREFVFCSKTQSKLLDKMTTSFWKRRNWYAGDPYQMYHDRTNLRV
UniProt Q9CQ75: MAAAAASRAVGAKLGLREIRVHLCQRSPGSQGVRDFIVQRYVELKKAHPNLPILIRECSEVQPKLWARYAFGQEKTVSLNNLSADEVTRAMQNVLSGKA
UniProt Q99P25: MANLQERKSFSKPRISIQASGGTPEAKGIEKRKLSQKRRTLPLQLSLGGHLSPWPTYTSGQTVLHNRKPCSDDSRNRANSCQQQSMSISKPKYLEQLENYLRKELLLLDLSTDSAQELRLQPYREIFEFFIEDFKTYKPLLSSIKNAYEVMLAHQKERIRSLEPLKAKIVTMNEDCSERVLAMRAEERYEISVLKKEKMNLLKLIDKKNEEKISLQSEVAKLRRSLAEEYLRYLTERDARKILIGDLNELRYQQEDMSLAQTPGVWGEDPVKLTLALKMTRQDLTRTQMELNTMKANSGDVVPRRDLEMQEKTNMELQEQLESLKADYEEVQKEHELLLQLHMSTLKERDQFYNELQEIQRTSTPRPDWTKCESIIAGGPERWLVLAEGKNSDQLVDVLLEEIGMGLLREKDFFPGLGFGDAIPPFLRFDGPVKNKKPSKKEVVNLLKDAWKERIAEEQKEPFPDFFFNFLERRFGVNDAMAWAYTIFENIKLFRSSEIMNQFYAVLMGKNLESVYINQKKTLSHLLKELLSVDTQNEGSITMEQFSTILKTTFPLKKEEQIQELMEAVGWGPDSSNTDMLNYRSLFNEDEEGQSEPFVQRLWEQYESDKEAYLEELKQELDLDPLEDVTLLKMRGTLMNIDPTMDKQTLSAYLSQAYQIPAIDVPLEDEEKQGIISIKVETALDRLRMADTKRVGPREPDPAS
UniProt Q9CQ02, whole entry: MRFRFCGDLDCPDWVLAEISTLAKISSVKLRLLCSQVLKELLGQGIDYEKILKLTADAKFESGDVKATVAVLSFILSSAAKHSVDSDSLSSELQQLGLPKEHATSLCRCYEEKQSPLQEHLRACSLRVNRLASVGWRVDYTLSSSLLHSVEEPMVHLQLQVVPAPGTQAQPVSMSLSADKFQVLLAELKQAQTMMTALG
UniProt Q9CPZ8: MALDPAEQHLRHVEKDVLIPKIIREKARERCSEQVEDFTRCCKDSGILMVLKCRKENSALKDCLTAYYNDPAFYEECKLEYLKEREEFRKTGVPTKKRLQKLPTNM
UniProt Q99LQ1: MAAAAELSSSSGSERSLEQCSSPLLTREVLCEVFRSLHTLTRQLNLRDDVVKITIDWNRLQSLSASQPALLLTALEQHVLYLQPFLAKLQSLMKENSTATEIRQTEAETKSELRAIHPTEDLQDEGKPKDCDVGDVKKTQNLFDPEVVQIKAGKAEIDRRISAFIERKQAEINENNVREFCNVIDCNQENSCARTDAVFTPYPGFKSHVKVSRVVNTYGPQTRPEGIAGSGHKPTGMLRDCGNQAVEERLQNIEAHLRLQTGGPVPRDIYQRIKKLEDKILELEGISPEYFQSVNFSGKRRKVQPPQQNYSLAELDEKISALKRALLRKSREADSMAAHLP
UniProt Q99MZ7: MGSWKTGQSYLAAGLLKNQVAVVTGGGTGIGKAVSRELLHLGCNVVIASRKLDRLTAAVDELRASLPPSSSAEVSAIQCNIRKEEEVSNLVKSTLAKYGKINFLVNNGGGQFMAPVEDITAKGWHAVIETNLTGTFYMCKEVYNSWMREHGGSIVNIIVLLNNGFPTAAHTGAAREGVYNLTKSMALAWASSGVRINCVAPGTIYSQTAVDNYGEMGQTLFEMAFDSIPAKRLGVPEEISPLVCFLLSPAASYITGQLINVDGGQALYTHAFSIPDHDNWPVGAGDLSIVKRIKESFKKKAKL
UniProt Q9CQI3, whole entry: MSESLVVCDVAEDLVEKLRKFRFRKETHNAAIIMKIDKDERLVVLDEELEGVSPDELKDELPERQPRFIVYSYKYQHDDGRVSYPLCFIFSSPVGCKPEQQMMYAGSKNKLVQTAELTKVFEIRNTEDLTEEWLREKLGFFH
UniProt Q99LJ7: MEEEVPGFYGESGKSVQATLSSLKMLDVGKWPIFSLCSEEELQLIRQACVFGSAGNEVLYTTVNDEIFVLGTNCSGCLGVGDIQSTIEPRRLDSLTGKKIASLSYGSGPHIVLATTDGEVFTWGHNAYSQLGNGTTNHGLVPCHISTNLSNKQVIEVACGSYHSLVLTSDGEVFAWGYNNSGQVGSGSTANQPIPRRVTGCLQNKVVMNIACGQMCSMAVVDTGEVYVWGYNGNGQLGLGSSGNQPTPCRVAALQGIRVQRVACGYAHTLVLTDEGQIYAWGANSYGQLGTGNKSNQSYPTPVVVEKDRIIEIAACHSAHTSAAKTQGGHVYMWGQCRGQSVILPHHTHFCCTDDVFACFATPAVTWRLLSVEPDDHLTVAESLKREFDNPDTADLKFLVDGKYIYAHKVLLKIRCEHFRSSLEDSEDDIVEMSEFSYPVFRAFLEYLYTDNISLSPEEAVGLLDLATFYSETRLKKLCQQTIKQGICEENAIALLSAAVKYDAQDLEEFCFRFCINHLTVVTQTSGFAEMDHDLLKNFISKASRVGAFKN
UniProt Q99N93, whole entry: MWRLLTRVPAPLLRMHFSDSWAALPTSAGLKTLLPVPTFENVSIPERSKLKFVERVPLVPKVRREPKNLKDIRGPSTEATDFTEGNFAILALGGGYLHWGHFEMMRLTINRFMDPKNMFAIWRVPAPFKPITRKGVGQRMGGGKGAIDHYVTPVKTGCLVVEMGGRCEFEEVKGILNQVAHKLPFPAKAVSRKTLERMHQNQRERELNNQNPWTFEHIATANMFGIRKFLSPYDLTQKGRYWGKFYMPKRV
UniProt Q9CQV8: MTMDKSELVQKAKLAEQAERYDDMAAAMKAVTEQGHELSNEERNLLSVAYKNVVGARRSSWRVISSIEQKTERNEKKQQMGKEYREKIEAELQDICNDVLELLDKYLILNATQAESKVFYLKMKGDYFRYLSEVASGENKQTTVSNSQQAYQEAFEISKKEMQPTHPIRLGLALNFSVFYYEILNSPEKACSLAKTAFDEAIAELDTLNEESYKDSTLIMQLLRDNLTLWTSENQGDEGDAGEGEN
UniProt Q9CQE9: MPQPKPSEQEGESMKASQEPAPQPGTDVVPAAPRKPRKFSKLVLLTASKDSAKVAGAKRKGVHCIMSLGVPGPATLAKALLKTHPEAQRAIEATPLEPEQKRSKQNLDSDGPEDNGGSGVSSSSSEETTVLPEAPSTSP
UniProt Q9CQ92: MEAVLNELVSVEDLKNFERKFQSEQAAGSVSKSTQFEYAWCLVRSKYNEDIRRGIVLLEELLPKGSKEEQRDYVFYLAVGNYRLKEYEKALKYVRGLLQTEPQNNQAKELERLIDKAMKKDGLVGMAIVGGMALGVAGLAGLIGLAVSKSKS
UniProt Q99LS3: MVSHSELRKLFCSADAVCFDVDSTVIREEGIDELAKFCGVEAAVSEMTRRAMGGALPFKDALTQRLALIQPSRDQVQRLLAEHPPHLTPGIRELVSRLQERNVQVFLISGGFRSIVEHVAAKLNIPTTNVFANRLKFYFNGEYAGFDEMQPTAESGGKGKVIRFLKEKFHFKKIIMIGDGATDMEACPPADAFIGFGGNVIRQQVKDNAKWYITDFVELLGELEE
UniProt Q99N16: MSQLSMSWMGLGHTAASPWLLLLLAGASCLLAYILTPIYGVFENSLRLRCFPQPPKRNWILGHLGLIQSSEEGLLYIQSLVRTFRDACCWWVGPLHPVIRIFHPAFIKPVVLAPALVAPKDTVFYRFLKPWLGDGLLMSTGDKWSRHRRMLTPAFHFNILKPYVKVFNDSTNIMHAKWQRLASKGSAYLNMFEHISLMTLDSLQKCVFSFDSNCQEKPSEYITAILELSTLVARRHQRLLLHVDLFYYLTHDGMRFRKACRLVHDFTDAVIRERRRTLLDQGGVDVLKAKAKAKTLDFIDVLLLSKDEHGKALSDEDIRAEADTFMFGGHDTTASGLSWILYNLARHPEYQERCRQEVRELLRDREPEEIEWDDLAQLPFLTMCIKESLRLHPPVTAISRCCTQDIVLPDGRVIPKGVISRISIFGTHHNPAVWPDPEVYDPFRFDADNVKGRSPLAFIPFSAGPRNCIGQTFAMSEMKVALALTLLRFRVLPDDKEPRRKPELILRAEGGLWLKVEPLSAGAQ

This is one part of the list. Most entries show no effect beyond the scatter of the controls.
The targets below were run with CN[C@@H]1C[C@H]2O[C@@](C)([C@@H]1OC)n1c3ccccc3c3c4c(c5c6ccccc6n2c5c31)C(=O)NC4 [staurosporine] (assay: log2 fold change of tryptic peptide abundance, ligand vs vehicle (limited proteolysis) (log2 ratio); higher = more trypsin-susceptible (destabilized)). Settings: ligand concentration: 20 uM; sample: mouse liver crude lysate; replicate design: treated separately.
“UniProt Q99LM9 (peptide sequence: QYWANLK, peptide start residue: 25)” gave a log2 fold change of 0.0338.
Work on “UniProt Q9CQQ7 (peptide sequence: RKEEEHMIDWVEK, peptide start residue: 209)” yielded a log2 fold change of 0.157.
“UniProt Q9CQ36 (peptide sequence: DAYCCAQQGK, peptide start residue: 82)” showed a log2 fold change of 0.0891.
“UniProt Q9CQV6 (peptide sequence: FLVPDHVNMSELIK, peptide start residue: 52)” showed a log2 fold change of 0.0836.
For “UniProt Q9CR24 (peptide sequence: EHVWGVLQPVYDREK, peptide start residue: 97)”, the log2 fold change was 0.169.
“UniProt Q99MB2 (peptide sequence: GIPKPESEATSEPALFGPHILK, peptide start residue: 292)” was tested, and the log2 fold change was -0.179.
“UniProt Q99MN9 (peptide sequence: GHQDVEAAQAEYVEK, peptide start residue: 477)” showed a log2 fold change of -0.116.
“UniProt Q9CR11 (peptide sequence: TSFEIAELKER, peptide start residue: 190)” gave a log2 fold change of 0.869.
Target “UniProt Q9CQA5 (peptide sequence: DGDFQELMK, peptide start residue: 73)” has a log2 fold change of 0.35.
In the case of “UniProt Q9CQI7 (peptide sequence: TMEQAAAAANK, peptide start residue: 112)”, the log2 fold change is reported as 0.129.
Target “UniProt Q99PE8 (peptide sequence: TTLLDAISGR, peptide start residue: 94)” has a log2 fold change of -0.193.
With “UniProt Q99PL5 (peptide sequence: GEAAQKQDK, peptide start residue: 422)” the log2 fold change was -1.09.
With “UniProt Q99P65 (peptide sequence: APSNHQEADQEALLGK, peptide start residue: 19)” the log2 fold change was -0.785.
“UniProt Q9CQL6 (peptide sequence: EFVFCSK, peptide start residue: 146)” gave a log2 fold change of -0.196.
“UniProt Q9CQ75 (peptide sequence: ECSEVQPK, peptide start residue: 57)” gave a log2 fold change of 0.215.
For “UniProt Q99P25 (peptide sequence: ERIAEEQK, peptide start residue: 453)”, the log2 fold change was -0.085.
With “UniProt Q9CQ02 (peptide sequence: QSPLQEHLR, peptide start residue: 114)” the log2 fold change was 0.253.
“UniProt Q99N87 (peptide sequence: DLNRGQIIGEGR, peptide start residue: 127)” was tested, and the log2 fold change was -0.44.
Target “UniProt Q9CPZ8 (peptide sequence: ERCSEQVEDFTR, peptide start residue: 29)” has a log2 fold change of -0.55.
For “UniProt Q99LL5 (peptide sequence: GLSVSGPCGSR, peptide start residue: 482)”, the log2 fold change was -0.175.
“UniProt Q99LQ1 (peptide sequence: LQNIEAHLR, peptide start residue: 250)” was tested, and the log2 fold change was 0.794.
For “UniProt Q99LR1 (peptide sequence: KRTEPVTLEHER, peptide start residue: 3)”, the log2 fold change was 0.081.
With “UniProt Q9CR56 (peptide sequence: VDPDVAQHWAK, peptide start residue: 130)” the log2 fold change was 0.243.
“UniProt Q99MZ7 (peptide sequence: KEEEVSNLVK, peptide start residue: 83)” gave a log2 fold change of -0.551.
In the case of “UniProt Q9CQI3 (peptide sequence: YQHDDGR, peptide start residue: 75)”, the log2 fold change is reported as 0.223.
Target “UniProt Q9CR29 (peptide sequence: VKKEDEVQAIATLIEK, peptide start residue: 92)” has a log2 fold change of 0.0666.
“UniProt Q99LJ7 (peptide sequence: LCQQTIK, peptide start residue: 478)” showed a log2 fold change of -0.142.
In the case of “UniProt Q99N93 (peptide sequence: NMFAIWRVPAPFKPITR, peptide start residue: 117)”, the log2 fold change is reported as -0.795.
Target “UniProt Q9CQV8 (peptide sequence: AVTEQGHELSNEERNLLSVAYK, peptide start residue: 30)” has a log2 fold change of -0.472.
With “UniProt Q99NB9 (peptide sequence: VRDVYWK, peptide start residue: 1261)” the log2 fold change was 0.334.
“UniProt Q9CQE9 (peptide sequence: PQPKPSEQEGESMK, peptide start residue: 2)” gave a log2 fold change of -0.791.
“UniProt Q99N32 (peptide sequence: LISSSGLPAENR, peptide start residue: 959)” showed a log2 fold change of 0.448.
“UniProt Q9CQ92 (peptide sequence: KFQSEQAAGSVSK, peptide start residue: 20)” was tested, and the log2 fold change was 0.286.
“UniProt Q99LS3 (peptide sequence: LALIQPSRDQVQR, peptide start residue: 66)” showed a log2 fold change of -0.557.
Target “UniProt Q99N16 (peptide sequence: RKPELILR, peptide start residue: 500)” has a log2 fold change of 0.409.
“UniProt Q99LW0 (peptide sequence: CLEDSESLGVKK, peptide start residue: 214)” showed a log2 fold change of 0.138.

From the supplement of paper PMC12819154, “High-throughput peptide-centric local stability assay extends protein–ligand identification to membrane proteins, tissues and bacteria” (Nature Structural & Molecular Biology, 2025)
